# Screening data

The results are deposited in PubChem (AID504749; NCATS, 2011).

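A panel of P. falciparum strains inside erythrocytes is exposed to compounds for three days, then a DNA-binding dye reports the amount of parasite DNA.
Each compound was titrated across a series from about 0.000037 to 29 µM.
The number is the fitted AC50, the concentration giving a half-maximal change in signal; a lower value means higher potency, whether the curve shows a decrease or an increase.
Calls follow the curve class and fit quality: every row here is inconclusive, covering signal-raising curves and weak, poorly fitted, partial or highest-dose-only inhibition curves.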

Values are in µM.
Every entry below has the call inconclusive.
Only part of the assay is shown, chiefly results filed as inconclusive.
A potency from a partial, single-point or poor curve is only a rough figure.
Some entries filed as inconclusive have a full curve.
The first word of each remark tells which way the curve ran; it can be opposite to the aim of the assay.

structure	setting	fitted potency (µM)	remark
CC(C)N(CC[C@@](C(N)=O)(c1ccccc1)c1ccccn1)C(C)C	GB4	19.01	inhibitor, single point
CC(C)N(CC[C@@](C(N)=O)(c1ccccc1)c1ccccn1)C(C)C	W2	16.94	inhibitor, single point
CCOC(=O)C1(c2ccccc2)CCN(CCC(C#N)(c2ccccc2)c2ccccc2)CC1	FAB9	11.22	inhibitor, single point
CCOC(=O)C1(c2ccccc2)CCN(CCC(C#N)(c2ccccc2)c2ccccc2)CC1	CP194	0.7569	inhibitor, partial curve, poor fit
CCOC(=O)C1(c2ccccc2)CCN(CCC(C#N)(c2ccccc2)c2ccccc2)CC1	JCK	17.78	inhibitor, single point
CCOC(=O)C1(c2ccccc2)CCN(CCC(C#N)(c2ccccc2)c2ccccc2)CC1	CP211	0.2685	inhibitor, full curve, poor fit
O=C(O)[C@@H]1CSCN1	W2	0.0027	inhibitor, full curve, poor fit
O=C(O)[C@@H]1CSCN1	CP266	19.01	inhibitor, single point
CC(C)(C)CC(C)(C)c1ccc(O)c(Cc2ccc(Cl)cc2Cl)c1	CP262	4.256	inhibitor, single point
CC(C)(C)CC(C)(C)c1ccc(O)c(Cc2ccc(Cl)cc2Cl)c1	CP305	1.51	inhibitor, full curve, poor fit
CC(C)(C)CC(C)(C)c1ccc(O)c(Cc2ccc(Cl)cc2Cl)c1	CP201	4.256	inhibitor, full curve
CC(C)(C)CC(C)(C)c1ccc(O)c(Cc2ccc(Cl)cc2Cl)c1	CP194	0.1694	inhibitor, full curve, poor fit
CCCC(C)(COC(N)=O)COC(=O)NC1CC1 (stereo not drawn)	7G8	8.912	inhibitor, single point
CCCC(C)(COC(N)=O)COC(=O)NC1CC1 (stereo not drawn)	TAB109	3.981	inhibitor, single point
Cc1ccc(S(=O)(=O)O)cc1C	ATS95	17.78	inhibitor, single point
Cc1ccc(S(=O)(=O)O)cc1C	CP335	4.256	inhibitor, single point
Cc1ccc(S(=O)(=O)O)cc1C	CP266	0.0005	inhibitor
CC(=O)N[C@@H]1C(O)OC(CO)C(O)C1O (stereo partly drawn)	DIV14	19.01	inhibitor, partial curve, poor fit
CC(=O)N[C@@H]1C(O)OC(CO)C(O)C1O (stereo partly drawn)	7G8	17.78	inhibitor, single point
CC(=O)N[C@@H]1C(O)OC(CO)C(O)C1O (stereo partly drawn)	Dd2	0.0003	inhibitor
CC(=O)N[C@@H]1C(O)OC(CO)C(O)C1O (stereo partly drawn)	HB3	0.0178	inhibitor, full curve, poor fit
CC(=O)N[C@@H]1C(O)OC(CO)C(O)C1O (stereo partly drawn)	GB4	21.33	inhibitor, partial curve, poor fit
CN1CCN(c2c(F)cc3c(=O)c(C(=O)O)cn(CCF)c3c2F)CC1	DIV14	9.528	inhibitor, partial curve, poor fit
Nc1ccn([C@@H]2O[C@H](CO)[C@@H](O)C2O)c(=O)n1 (stereo partly drawn)	DIV30	19.01	inhibitor, single point
Nc1ccn([C@@H]2O[C@H](CO)[C@@H](O)C2O)c(=O)n1 (stereo partly drawn)	PC26	15.1	inhibitor, single point
NC(=S)N=Nc1ccc(NN=C(N)N)cc1	CP266	13.46	inhibitor, partial curve
COc1ccc(/C=N/NC(=O)c2ccncc2)c(C(=O)O)c1OC	TAB109	3.981	inhibitor, single point
COc1ccc(/C=N/NC(=O)c2ccncc2)c(C(=O)O)c1OC	CP201	3.793	inhibitor, partial curve, poor fit
CN/C(=C\[N+](=O)[O-])NCCSCc1csc(CN(C)C)n1	CP266	2.031	activator, partial curve, poor fit
CC(=O)Oc1cc(C(C)C)c(OCCN(C)C)cc1C	CP335	1.811	inhibitor, single point

The last 4 entries again:

COc1ccc(/C=N/NC(=O)c2ccncc2)c(C(=O)O)c1OC [TAB109] gave fitted potency 3.981 µM (inhibitor, single point).
COc1ccc(/C=N/NC(=O)c2ccncc2)c(C(=O)O)c1OC [CP201] gave fitted potency 3.793 µM (inhibitor, partial curve, poor fit).
CN/C(=C\[N+](=O)[O-])NCCSCc1csc(CN(C)C)n1 [CP266] gave fitted potency 2.031 µM (activator, partial curve, poor fit).
CC(=O)Oc1cc(C(C)C)c(OCCN(C)C)cc1C [CP335] gave fitted potency 1.811 µM (inhibitor, single point).